Experimental data: ChEMBL document CHEMBL4627399, “Synthesis and Structure-Activity Relationships of 5'-Aryl-14-alkoxypyridomorphinans: Identification of a μ Opioid Receptor Agonist/δ Opioid Receptor Antagonist Ligand with Systemic Antinociceptive Activity and Diminished Opioid Side Effects” (J Med Chem, 2020)

Organism: Mus musculus
Assay: animal or person
Type: functional
Settings: CD-1, 24 h

CN1CC[C@]23c4c5ccc(O)c4O[C@H]2[C@@H](O)C=C[C@H]3[C@H]1C5.CN1CC[C@]23c4c5ccc(O)c4O[C@H]2[C@@H](O)C=C[C@H]3[C@H]1C5.O.O.O.O.O.O=S(=O)(O)O [MORPHINE SULFATE]
ED50: 6.43 mg/kg
